Values after ≈ are worked out from the molar mass of the structure shown.
Columns and labels:
K562 cells = assay: Cell Titer Blue viability, single drug, K562 cells; details: Homo sapiens, K562, 48 h
Procedure: (§1) Viable cells reduce resazurin to resorufin (pink).
(§2) Cell growth was evaluated as described above.
K562 was established from pleural effusion of person with chronic myelogenous leukaemia in terminal blast crisis. […] The line used in these experiments was the K562B. […] K562B has been compared to K562A and K562 C, with respect to growth kinetics, cell surface protein markers, surface antigens, cytogenetics and hemoglobin production.
(§3) The cell lines were counted. […] Fresh medium containing either two-fold increasing concentrations of Mycograb® (1.5-200 μg/ml), or medium alone was then added to the wells. The plate was returned to the incubator for 48 hours following which the cell titre blue assay was carried out, or viable counts were determined using a haemocytometer.
(§4) The cell lines were counted. […] The plates were returned to the incubator for 48 hours following which cell titre blue assays were carried out.

MCF7 cells = assay: Cell Titer Blue viability, single drug, MCF7 cells; assay type: cell-based; details: Homo sapiens, 48 hour incubation
Procedure: Viable cells reduce resazurin to resorufin (pink). Cell growth was evaluated as described above. […] The cell lines were split and cells counted. […] The next day, the cells were observed under phase contrast microscopy to ensure they had adhered to the plates and the supernatant medium removed by aspiration.

KU-812 cells = assay: Cell Titer Blue viability, single drug, KU-812 cells; details: Homo sapiens, KU812, 48 h
Procedure: as §1, §2, §3, §4

IC50 (K562 cells): 16 µg/mL (≈ 32.4 µM) | IC50 (MCF7 cells): 37.5 µg/mL (≈ 76 µM)
Compound: Cc1ccc(NC(=O)c2ccc(CN3CCN(C)CC3)cc2)cc1Nc1nccc(-c2cccnc2)n1 [Imatinib]
IC50 (KU-812 cells): 0.12 µg/mL (≈ 0.243 µM)

From patent US20080038267A1, “Treatment Of Cancer” (NEUTEC PHARMA LIMITED, priority 2004, published 2008)
